# Experimental data from PubChem BioAssay AID1259415 (National Center for Advancing Translational Sciences (NCATS), 2018).
# In all, about 410,000 compounds went through this assay and about 18,000 (4.4%) were called active. Inconclusive results, whose numbers are uncertain, are shown with a selection of clear calls. Cut-off read from the data, not from the text of the source: active = activity change below about -60%; inconclusive = no clear call, values can overlap the other calls; inactive = above about -39%. The source holds several records for some structures; these can differ, active in one and inactive in another.
# Test: qHTS Assay for inhibitors of the human cytomegalovirus (HCMV)
# Details: HFF cells, HCMV-luciferase reporter, 72 h; at 57.5 µM; stronger effect = lower value
# Method in brief: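 Inhibition of viral replication was scored as loss of reporter luminescence in HFFs infected with HCMV-luciferase (MOI 1 PFU/cell) for 72 h; compounds tested at 2 doses, normalized to buffer and Salinomycin controls.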
# % is set by controls: 0 for no effect and ±100 for the full control effect.
row,SMILES,"activity change, negative = inhibition"
1,COc1ccc(C(=O)NNC(=O)c2ccc3ccccc3n2)cc1,active: -88.5%
2,CC1(C)Oc2ccc3ccc(=O)oc3c2/C(=C/Nc2ccc(O)cc2)C1=O,active: -84.6%
3,O=C(NNC1=Nc2ccccc2SC1)c1ccc(Cl)cc1,inconclusive: -59.3%
4,CCOC(=O)C1=CN(CC2CCCO2)C=C(C(=O)OCC)C1c1ccccc1C(F)(F)F (configuration not stated),inconclusive: -55%
5,COc1ccccc1N1CCN(C(c2ccccc2)c2nnnn2CCc2ccccc2)CC1 (configuration not stated),inconclusive: -40.9%
6,Cc1cccc(NC(=O)c2nc[nH]c2C(=O)N2CCC(C)CC2)c1,inconclusive: -54.8%
7,Cc1[nH]n(-c2ccccc2)c(=O)c1C(c1cccc([N+](=O)[O-])c1)c1c(C)[nH]n(-c2ccccc2)c1=O,inconclusive: -48.1%
8,COc1cc(/C=N/Nc2cc(C)nc(NS(=O)(=O)c3ccc(C)cc3)n2)ccc1O,inactive: 12.3%
9,COCCNC(=O)/C(C#N)=C/c1nc(N(C)C)n(-c2ccc(F)cc2)c1Cl,inconclusive: -43.2%
10,COc1ccc(/C=C(\NC(=O)c2ccccc2)C(=O)NC2CCCCC2)cc1,inactive: -11%
11,Cc1ccc(NC(=S)NCCc2ccc(Cl)cc2)c(C)c1,inconclusive: -51.6%
12,CCN1CCN(S(=O)(=O)c2ccc(C)c([N+](=O)[O-])c2)CC1,inconclusive: -53.2%
13,Cc1ccc(Oc2cccc3c2S(=O)(=O)N([C@H](C)c2ccccc2)C[C@@H](COCc2ccccc2)O3)cc1,active: -78.4%
14,COc1cc(/C=C2\C(=O)NC(=O)N(c3ccccc3)C2=O)cc(OC)c1O,inactive: -26.6%
15,COc1ccc(OC)c(Nc2cc(C(=O)NCc3ccccc3)c3ccccc3n2)c1,inconclusive: -50.3%
16,O=[N+]([O-])c1ccc(CS(=O)(=O)c2ccc(Cl)cc2)cc1,inconclusive: -48.8%
17,N#Cc1ccc(C(=O)Nc2nc(-c3cccs3)c(C(=O)C(F)(F)F)s2)cc1,active: -96.5%
18,COCCn1c(SCC(=O)c2cccc(OC)c2)nnc1-c1ccco1,inactive: -21.1%
19,Cc1cc(C)cc(NC(=S)NCCCN2CCOCC2)c1,inconclusive: -46.1%
20,COC(=O)CN1C(=O)C(O)(CC(=O)c2ccc(Br)cc2)c2ccccc21 (configuration not stated),active: -62.3%
21,Cc1ccccc1NS(=O)(=O)c1cc(C(=O)Nc2cccc([N+](=O)[O-])c2)ccc1C,active: -94.7%
22,O=[N+]([O-])c1ccc(C2C3C(c4ccccc4)=NC4(CCCCC4)N32)cc1 (configuration not stated),inconclusive: -40.1%

row,SMILES,"activity change, negative = inhibition"
1,Cc1ccc[n+](CC(=O)/C=C2\N(C)c3ccccc3C2(C)C)c1,active: -97.5%
2,CCn1c(=O)c(C(=O)CN2CCCc3ccccc32)c(N)n(Cc2ccccc2)c1=O,active: -88.5%
3,Cc1cccc2c1-c1sc(C(=O)NCCCN3CCC(C)CC3)cc1CO2,inconclusive: -53.6%
4,CCOCCCn1c(SCc2nc3ccccc3s2)nc2ccccc2c1=O,active: -78.4%
5,COc1ccccc1C(=O)Nc1nnc(S(=O)(=O)N2CCCCC2)s1,active: -73.3%
6,Cc1cc(OCCCC(=O)NCc2cccs2)ccc1Cl,inconclusive: -44.2%
7,CCOC(=O)c1ccc(N=Cc2cnc(N)nc2N)cc1,inactive: 24.4%
8,O=C(CSc1nnnn1-c1ccc(F)cc1F)Nc1ccccc1F,inconclusive: -44.1%
9,O=C(NCc1cn2ccccc2n1)C1CCC(=O)N(Cc2ccccc2F)C1 (configuration not stated),inconclusive: -46%
10,C=CCn1c(C(CC(C)C)CC(C)O)n[nH]c1=S (configuration not stated),inconclusive: -48.2%
11,CCN(C(=O)CN1C(=O)/C(=C/c2ccccc2)SC1=S)C1CCS(=O)(=O)C1 (configuration not stated),inconclusive: 0%
12,COc1ccc(C2=Nc3ccc(C)cc3C(c3ccccc3)N2CC(=O)NN)cc1 (configuration not stated),inactive: -9.55%
13,CCOC(=O)c1c(CS(=O)(=O)c2ccccc2)n(C)c2cc(Br)c(O)c(CN(C)C)c12,inconclusive: -44.9%
14,Cc1ccc2c(c1)c1n[nH]c(=S)nc1n2CCc1ccccc1,active: -92.7%
15,CC(c1ccco1)N(C(=O)c1cccc(Br)c1)c1ccccn1 (configuration not stated),inconclusive: -46.5%
16,Cc1ccc2nc(C(F)(F)F)c(C#N)c(N)c2c1,active: -107%
17,O=S(=O)(c1ccccc1Cl)N1CCCC1c1nc(-c2ccccc2Cl)no1 (configuration not stated),inconclusive: -47%
18,COC(=O)c1[nH]c2ccc(C)cc2c1NC(=O)CN1CCN(c2ccc(F)cc2)CC1,active: -83.3%
19,CN(Cc1ccccc1)c1ncc(C=O)s1,active: -63.4%
20,CC(=O)C1CCC2C3CCC4=CC(=O)CCC4(C)C3C(O)CC12C (configuration not stated),inconclusive: -50.8%
21,CC1CN(C(=O)Nc2ccc(C(=O)NCCc3ccc(Cl)cc3)cc2)c2ccccc2S1 (configuration not stated),inactive: -33.7%
22,O=c1c2ccccc2nc(/C=C/c2cccnc2)n1Cc1ccccc1,active: -97.6%

row,SMILES,"activity change, negative = inhibition"
1,Cc1ccc(C)c(NC(=O)COC(=O)CSc2ccccc2)c1,inconclusive: -42%
2,CCN(CC)C(=O)CN1C(=O)C2(OCC(C)(c3ccccc3)CO2)c2ccccc21 (configuration not stated),inconclusive: -54.4%
3,CCOc1ccc2oc(C(=O)NC3CCN(Cc4ccccc4)CC3)c(C)c2c1,inconclusive: -46.9%
4,CCCNC(=S)Nc1ccc(Cl)cc1C,inactive: 1.63%
5,COc1ccc(-n2cnc3cc(N)ccc32)cc1,inconclusive: -48.4%
6,Cc1cc(C)c(S(=O)(=O)ON2C(=O)c3ccccc3C2=O)cc1C,active: -81.3%
7,COc1cccc(CNc2ncc(C(=O)Nc3cc(OC)c(OC)c(OC)c3)c(C)n2)c1,inactive: 30.8%
8,CCn1cc2nc(SCc3c(F)cccc3Cl)n(CCc3ccccc3)c(=O)c2n1,inconclusive: -49.9%
9,Cn1cc([N+](=O)[O-])c(C(=O)Nc2ccc3c(C(F)(F)F)cc(=O)oc3c2)n1,active: -99.4%
10,Cn1cccc1/C=C1\SC(=S)N(NC(=O)c2cccc(Cl)c2)C1=O,inconclusive: -44.7%
11,c1cncc(Nc2c3ccccc3nc3ccccc23)c1,active: -85.9%
12,COc1cc2nc(CN3CCN(S(=O)(=O)c4ccccc4)CC3)[nH]c(=O)c2cc1OC,inconclusive: -43.1%
13,CCCCNC(=O)C1(NC(=O)Nc2ccccc2)CCCCC1,inconclusive: -44.4%
14,CCOC(=O)N/N=C/c1c(C)c(C(=O)c2ccc(F)cc2)n2ccccc12,inconclusive: -40.9%
15,O=C1CCC2S/C(=C/Nc3ccc(C(F)(F)F)cc3)C(=O)N12 (configuration not stated),active: -77.8%
16,C=C[C@@H]1c2ccccc2N(S(=O)(=O)c2ccc(C)cc2)[C@H](c2ccc(C(F)(F)F)cc2)C1(C#N)C#N,inconclusive: -44.2%
17,CSc1ccc(CCNS(=O)(=O)c2cc(-c3cc(C)no3)ccc2C)cc1,inconclusive: -45.7%
18,CCc1ccc(C(=O)NNC(=O)[C@H](C)NC(=O)c2ccco2)cc1,inconclusive: -44.1%
19,COc1cccc(-c2nnc(SCC(=O)Nc3cc(C)ccc3OC)n2N)c1,inconclusive: -43.4%
20,COc1cccc(CNC(=O)CCNC(=O)c2ccc(Br)o2)c1,inactive: 0%
21,Cc1ccc(-c2nnc(Nc3cccc(Br)c3)c3ccccc23)cc1S(=O)(=O)N1CCN(C)CC1,inconclusive: -43.8%
22,CCCN(CCC)CCCNC(=S)Nc1ccc2nc(N3CCCC3)cc(C)c2c1,active: -81.2%

# For reference, 3 of the compounds above.
row,SMILES,"activity change, negative = inhibition"
5,COc1ccc(-n2cnc3cc(N)ccc32)cc1,inconclusive: -48.4%
6,Cc1cc(C)c(S(=O)(=O)ON2C(=O)c3ccccc3C2=O)cc1C,active: -81.3%
7,COc1cccc(CNc2ncc(C(=O)Nc3cc(OC)c(OC)c(OC)c3)c(C)n2)c1,inactive: 30.8%

# Additional results:

row,SMILES,"activity change, negative = inhibition"
1,O=C(NCc1ccccc1Cl)C(=O)c1c[nH]c2ccccc12,inconclusive: -46.4%
2,COc1ccccc1CNC(=O)COC(=O)Cc1c(Cl)cccc1Cl,inactive: -32.3%
3,CCOC(=O)c1ccccc1NC(=O)c1cn(-c2ccc(OC)cc2)c(=O)c2ccccc12,inconclusive: -43.7%
4,Cc1cccc(C)c1Nc1nnc(SCC(=O)NCc2cccs2)s1,inactive: -10%
5,CCS(=O)(=O)N1CCN(c2ccc(C(=O)NC3C4CC5CC(C4)CC3C5)cc2[N+](=O)[O-])CC1 (configuration not stated),inconclusive: -47.6%
6,O=C(NCCc1ccc(Cl)cc1)c1cc(S(=O)(=O)N2CCCC2)ccc1F,inactive: -24.8%
7,Cc1ccc(C)c(N(CC(=O)NC2CCCC2)C(=O)c2oc(C(C)(C)C)cc2C)c1,active: -67.5%
8,CC(C)(C)C(=O)OCc1cn(-c2ccc(Cl)cc2)nn1,inconclusive: -57.2%
9,C#CCOc1c(Br)cc(C2C(C(=O)OC)=C(C)NC3=C2C(=O)c2ccccc23)cc1OCC (configuration not stated),active: -62.8%
10,CCN(CC)S(=O)(=O)c1ccc(OC)c(NC(=O)CSc2cc(C)ccc2C)c1,inactive: -6.4%
11,COc1ccccc1NS(=O)(=O)c1cc(NC(=O)CNC(=O)c2ccccc2)ccc1C,inconclusive: -58%
12,COCCNC(=O)c1onc(CSc2cccc(C)c2)c1C(=O)O,inconclusive: -48.7%
13,COc1ccc(C(=O)c2cc3c(cc2[N+](=O)[O-])OCCO3)cc1,inactive: -10.9%
14,Cc1nc2ccccc2c2oc(C(=O)NCc3ccc4c(c3)OCO4)cc12,inconclusive: -50%
15,CC(CNC(=O)C(C)(C)C)NC(=O)C(C)(C)C (configuration not stated),inconclusive: -46.1%
16,CCCCCNCc1ccc(Cl)cc1,inconclusive: -41%
17,Cc1noc(C)c1-c1nnc(-c2ccc(OC(F)(F)F)cc2)o1,inconclusive: -50.5%
18,Cc1[nH]c2ccccc2c1C1(O)C(=O)N(Cc2ccccc2)c2ccc(Br)cc21 (configuration not stated),active: -102%
19,COc1ccccc1-c1cc(NC(C)=O)c2ncc(-c3ccccc3)n2c1,inconclusive: -47.5%
20,CN1Cc2cnnn2-c2ccccc2C1C#N (configuration not stated),active: -63.5%
21,O=c1[nH]c(SCc2nc3c(cnn3-c3ccccc3)c(=O)[nH]2)nc2ccccc12,active: -92.2%
